# This is one part of the list. The data scatter; read single values as rough.
# The chains behind the UniProt entries cited, without tags or fusion partners. Where a name states a change or a piece, a line headed by the entry shows the natural chain unless it says otherwise.
# UniProt Q9UPW5: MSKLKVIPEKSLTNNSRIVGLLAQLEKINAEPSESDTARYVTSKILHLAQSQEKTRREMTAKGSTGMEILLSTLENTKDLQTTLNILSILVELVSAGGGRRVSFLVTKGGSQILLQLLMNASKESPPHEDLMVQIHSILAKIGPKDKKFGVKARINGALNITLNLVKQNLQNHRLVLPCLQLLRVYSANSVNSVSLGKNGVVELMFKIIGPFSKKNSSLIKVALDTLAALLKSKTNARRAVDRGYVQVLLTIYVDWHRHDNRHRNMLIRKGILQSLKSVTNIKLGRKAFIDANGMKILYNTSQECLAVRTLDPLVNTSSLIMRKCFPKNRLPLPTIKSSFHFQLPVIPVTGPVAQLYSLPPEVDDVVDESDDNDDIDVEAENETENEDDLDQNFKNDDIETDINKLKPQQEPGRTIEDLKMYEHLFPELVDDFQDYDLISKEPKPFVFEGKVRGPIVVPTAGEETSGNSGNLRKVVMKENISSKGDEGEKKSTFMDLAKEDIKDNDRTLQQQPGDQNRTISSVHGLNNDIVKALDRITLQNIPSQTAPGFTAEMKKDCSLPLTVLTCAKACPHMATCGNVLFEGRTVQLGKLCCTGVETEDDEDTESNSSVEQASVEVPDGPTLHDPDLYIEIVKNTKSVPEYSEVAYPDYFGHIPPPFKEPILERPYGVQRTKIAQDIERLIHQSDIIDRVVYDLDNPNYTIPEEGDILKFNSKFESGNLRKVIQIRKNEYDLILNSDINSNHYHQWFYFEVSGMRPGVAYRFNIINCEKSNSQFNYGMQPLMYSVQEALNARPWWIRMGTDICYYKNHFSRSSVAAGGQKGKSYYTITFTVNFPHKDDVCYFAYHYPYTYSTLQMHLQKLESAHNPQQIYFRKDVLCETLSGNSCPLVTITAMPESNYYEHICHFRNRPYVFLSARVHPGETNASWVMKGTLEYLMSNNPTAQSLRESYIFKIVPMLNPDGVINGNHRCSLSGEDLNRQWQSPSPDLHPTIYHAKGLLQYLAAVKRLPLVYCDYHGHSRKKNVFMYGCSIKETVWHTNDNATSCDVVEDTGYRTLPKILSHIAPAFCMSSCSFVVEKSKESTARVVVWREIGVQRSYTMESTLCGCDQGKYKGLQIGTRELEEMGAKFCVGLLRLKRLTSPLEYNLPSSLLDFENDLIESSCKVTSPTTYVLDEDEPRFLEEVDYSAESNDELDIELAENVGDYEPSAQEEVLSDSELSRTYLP
# UniProt Q6DHV7: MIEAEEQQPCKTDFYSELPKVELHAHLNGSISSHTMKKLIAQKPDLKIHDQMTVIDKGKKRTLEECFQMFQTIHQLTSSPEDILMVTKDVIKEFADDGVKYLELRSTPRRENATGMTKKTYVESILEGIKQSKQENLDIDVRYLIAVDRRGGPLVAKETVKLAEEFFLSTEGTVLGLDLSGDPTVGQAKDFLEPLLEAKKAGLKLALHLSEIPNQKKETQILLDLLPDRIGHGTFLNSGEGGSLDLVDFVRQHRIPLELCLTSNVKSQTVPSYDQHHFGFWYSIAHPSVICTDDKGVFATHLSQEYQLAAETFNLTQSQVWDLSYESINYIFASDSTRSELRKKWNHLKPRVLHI
# UniProt Q9GZN1: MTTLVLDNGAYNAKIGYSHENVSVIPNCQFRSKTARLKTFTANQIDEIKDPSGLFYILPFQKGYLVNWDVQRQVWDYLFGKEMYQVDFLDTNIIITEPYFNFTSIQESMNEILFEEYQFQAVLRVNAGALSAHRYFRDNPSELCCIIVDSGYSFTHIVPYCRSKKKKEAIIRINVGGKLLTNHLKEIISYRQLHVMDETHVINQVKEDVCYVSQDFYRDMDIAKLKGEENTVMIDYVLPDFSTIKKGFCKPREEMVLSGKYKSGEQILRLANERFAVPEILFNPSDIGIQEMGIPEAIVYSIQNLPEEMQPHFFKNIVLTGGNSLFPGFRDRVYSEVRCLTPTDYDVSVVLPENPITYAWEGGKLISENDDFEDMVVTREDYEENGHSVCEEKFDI
# UniProt Q9H1A4, whole entry, looked up: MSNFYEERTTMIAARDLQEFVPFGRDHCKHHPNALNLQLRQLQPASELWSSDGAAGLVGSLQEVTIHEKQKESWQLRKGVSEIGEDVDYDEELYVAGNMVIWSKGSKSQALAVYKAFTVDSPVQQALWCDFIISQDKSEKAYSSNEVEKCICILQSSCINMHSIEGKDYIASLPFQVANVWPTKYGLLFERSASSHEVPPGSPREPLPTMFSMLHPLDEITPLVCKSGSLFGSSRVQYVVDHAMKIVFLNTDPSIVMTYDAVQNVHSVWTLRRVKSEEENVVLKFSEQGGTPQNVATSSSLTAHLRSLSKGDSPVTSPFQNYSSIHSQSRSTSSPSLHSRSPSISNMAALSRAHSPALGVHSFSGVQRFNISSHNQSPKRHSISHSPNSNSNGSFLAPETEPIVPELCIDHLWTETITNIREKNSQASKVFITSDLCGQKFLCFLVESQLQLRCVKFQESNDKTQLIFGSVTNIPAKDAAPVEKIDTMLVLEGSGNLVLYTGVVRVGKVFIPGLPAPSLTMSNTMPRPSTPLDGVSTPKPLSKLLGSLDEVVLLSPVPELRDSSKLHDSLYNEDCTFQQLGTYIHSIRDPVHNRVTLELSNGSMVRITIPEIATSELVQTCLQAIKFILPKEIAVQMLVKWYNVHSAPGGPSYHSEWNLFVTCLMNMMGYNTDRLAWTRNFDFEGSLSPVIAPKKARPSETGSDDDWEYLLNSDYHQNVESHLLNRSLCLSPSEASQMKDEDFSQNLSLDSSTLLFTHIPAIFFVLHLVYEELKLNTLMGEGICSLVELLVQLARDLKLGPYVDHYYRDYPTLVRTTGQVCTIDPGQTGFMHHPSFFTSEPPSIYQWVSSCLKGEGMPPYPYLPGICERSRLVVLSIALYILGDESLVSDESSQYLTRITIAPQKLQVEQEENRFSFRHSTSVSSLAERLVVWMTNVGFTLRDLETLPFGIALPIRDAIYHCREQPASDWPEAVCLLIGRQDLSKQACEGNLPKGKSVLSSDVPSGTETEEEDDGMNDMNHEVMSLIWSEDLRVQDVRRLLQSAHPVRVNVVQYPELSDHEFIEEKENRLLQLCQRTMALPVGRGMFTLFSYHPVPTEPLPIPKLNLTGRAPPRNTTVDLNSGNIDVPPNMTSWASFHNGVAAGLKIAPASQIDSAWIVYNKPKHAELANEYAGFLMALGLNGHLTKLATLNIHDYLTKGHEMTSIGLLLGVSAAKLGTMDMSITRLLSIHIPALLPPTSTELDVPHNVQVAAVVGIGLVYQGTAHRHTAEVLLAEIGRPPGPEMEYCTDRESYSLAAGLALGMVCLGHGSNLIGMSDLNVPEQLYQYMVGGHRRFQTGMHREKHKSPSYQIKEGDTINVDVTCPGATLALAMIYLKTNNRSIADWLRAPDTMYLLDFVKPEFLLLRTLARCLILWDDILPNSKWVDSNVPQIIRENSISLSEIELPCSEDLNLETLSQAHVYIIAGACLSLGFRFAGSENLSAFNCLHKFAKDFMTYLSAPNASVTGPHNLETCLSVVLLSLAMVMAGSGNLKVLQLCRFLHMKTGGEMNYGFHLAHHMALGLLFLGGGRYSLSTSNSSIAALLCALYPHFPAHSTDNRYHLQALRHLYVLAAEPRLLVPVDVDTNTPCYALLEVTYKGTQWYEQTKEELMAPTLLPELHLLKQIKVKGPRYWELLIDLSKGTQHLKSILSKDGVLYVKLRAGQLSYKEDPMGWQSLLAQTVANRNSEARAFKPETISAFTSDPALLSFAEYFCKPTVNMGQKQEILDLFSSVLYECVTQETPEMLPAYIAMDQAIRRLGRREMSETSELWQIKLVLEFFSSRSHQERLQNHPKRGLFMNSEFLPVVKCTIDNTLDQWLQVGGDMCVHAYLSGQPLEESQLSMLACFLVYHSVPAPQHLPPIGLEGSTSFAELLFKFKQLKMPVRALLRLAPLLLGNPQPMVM
# UniProt Q3SY69: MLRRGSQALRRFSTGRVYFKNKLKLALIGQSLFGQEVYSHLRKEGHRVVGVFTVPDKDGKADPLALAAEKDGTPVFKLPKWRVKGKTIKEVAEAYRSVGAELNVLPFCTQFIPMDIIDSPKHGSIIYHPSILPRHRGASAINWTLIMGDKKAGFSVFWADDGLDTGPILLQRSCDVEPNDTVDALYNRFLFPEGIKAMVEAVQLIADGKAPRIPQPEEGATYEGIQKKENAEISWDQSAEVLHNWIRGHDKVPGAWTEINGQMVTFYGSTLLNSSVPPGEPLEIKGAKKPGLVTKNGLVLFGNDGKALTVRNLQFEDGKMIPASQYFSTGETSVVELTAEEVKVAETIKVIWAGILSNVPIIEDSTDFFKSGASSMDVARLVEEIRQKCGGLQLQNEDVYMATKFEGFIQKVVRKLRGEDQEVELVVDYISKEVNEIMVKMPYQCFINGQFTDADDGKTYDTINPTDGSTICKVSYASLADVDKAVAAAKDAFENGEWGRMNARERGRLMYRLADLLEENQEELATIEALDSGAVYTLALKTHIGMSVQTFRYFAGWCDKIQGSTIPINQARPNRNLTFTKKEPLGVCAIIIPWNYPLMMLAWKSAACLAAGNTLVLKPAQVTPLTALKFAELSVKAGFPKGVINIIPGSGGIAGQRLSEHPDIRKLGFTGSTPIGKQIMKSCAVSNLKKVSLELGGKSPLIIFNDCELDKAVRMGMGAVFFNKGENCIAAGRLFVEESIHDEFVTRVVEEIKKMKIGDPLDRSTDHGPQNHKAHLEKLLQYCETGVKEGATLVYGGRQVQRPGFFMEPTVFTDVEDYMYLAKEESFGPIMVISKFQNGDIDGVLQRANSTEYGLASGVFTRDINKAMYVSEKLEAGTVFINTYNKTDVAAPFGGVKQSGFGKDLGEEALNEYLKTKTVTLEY
# UniProt Q9NZ32: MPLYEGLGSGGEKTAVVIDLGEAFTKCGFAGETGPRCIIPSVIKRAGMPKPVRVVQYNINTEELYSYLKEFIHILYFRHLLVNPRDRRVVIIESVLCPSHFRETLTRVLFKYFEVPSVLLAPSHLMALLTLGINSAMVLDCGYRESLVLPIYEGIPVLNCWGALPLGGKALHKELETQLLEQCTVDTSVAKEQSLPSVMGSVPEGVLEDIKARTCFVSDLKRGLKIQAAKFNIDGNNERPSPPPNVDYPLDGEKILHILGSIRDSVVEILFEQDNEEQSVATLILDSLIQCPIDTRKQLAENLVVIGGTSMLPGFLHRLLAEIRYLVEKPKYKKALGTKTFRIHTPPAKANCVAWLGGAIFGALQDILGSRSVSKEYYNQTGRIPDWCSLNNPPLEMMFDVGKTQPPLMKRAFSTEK
# UniProt P51649: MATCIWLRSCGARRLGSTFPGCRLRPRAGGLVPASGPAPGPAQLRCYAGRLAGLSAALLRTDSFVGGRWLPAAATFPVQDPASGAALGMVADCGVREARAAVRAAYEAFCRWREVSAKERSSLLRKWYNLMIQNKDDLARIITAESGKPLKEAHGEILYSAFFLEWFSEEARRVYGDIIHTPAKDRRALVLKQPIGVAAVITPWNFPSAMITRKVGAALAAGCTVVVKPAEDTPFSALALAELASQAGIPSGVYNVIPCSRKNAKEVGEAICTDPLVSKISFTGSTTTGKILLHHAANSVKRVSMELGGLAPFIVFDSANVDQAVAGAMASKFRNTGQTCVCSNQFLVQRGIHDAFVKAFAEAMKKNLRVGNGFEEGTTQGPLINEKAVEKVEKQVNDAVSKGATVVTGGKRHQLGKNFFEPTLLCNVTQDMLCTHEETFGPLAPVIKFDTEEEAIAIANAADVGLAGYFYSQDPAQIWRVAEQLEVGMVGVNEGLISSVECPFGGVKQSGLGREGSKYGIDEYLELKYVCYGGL
# UniProt Q6NS38: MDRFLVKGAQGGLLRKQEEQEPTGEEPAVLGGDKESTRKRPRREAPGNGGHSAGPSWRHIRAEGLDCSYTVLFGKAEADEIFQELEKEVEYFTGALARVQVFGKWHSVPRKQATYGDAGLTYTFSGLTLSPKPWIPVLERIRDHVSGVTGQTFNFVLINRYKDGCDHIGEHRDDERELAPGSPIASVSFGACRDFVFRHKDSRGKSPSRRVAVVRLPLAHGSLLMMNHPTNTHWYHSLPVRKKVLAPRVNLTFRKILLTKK
# Legend:
# [1] = compound: ClCC(=O)N[C@@H]1CCCc2ccccc12; assay: log2 mean competition ratio of IA-DTB cysteine labelling (DMSO/compound) (log2 ratio); higher = stronger cysteine engagement by compound; conditions: treatment time: 4 h, cell line lysate: HEK293T
# Experimental: (§1)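 IA-DTB competitive cysteine chemoproteomics in HEK293T RIPA lysate. Lysates were treated with compound 29 or 30 at 50 or 200 µM for 4 h, then IA-DTB (500 µM, 1 h), trypsin-digested, NeutrAvidin-enriched and analysed by diaPASEF. Competition ratio = intensity DMSO / intensity compound (n=4 treated, n=64 DMSO); binding: mean log2 CR ≥ 1 and p ≤ 0.05 plus QC filters. Target is the cysteine site.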
# [2] = compound: ClCC(=O)N[C@H]1CCCc2ccccc12; assay: as above; conditions: treatment time: 4 h, cell line lysate: HEK293T
# Experimental: as §1
Target,log2 mean competition ratio ([1]; 50 µM),log2 mean competition ratio ([1]; 200 µM),log2 mean competition ratio ([2]; 50 µM),log2 mean competition ratio ([2]; 200 µM)
ALG13 C242 (UniProt Q9NP73),0.0562,0.198,0.0251,0.329
AFTPH C511 (UniProt Q6ULP2),-0.465,-0.18,-0.17,0.0722
AGTPBP1 C769 (UniProt Q9UPW5),-0.222,-0.263,0.0883,-0.145
AGTPBP1 C305 (UniProt Q9UPW5),-0.0426,0.0203,0.226,0.00712
ADAL C10 (UniProt Q6DHV7),-0.1,-0.0206,-0.074,0.326
AGO2 C462,0.0895,0.271,-0.405,0.0976
ACTR6 C28 (UniProt Q9GZN1),0.0423,0.0121,0.137,-0.137
ANKHD1 C1965,0.0702,0.265,-0.0288,0.0898
ACTR2 C221 (UniProt P61160),0.329,-0.111,0.363,-0.233
ANAPC1 C437 (UniProt Q9H1A4),0.0894,-0.147,-0.174,-0.345
ANAPC7 C295 (UniProt Q9UJX3),0.17,0.0379,-0.0953,0.126
ALDH1L2 C389 (UniProt Q3SY69),0.399,-0.0413,0.0052,-0.348
ACIN1 C733,-0.234,-0.209,-0.34,-0.269
ACTN1 C370,0.282,-0.0808,0.315,-0.273
ADAR C1036 (UniProt P55265),-0.119,0.208,-0.146,0.194
ACTR10 C183 (UniProt Q9NZ32),-0.224,0.353,-0.0119,0.361
ALDH5A1 C110 (UniProt P51649),0.332,-0.0894,0.571,0.0759
ALKBH2 C165 (UniProt Q6NS38),0.194,0.655,-0.0831,-0.114
ALMS1 C2993 (UniProt Q8TCU4),0.169,0.0247,-0.151,0.0367

# Some of the entries so far, bar-delimited.
Target | log2 mean competition ratio ([1]; 50 µM) | log2 mean competition ratio ([1]; 200 µM) | log2 mean competition ratio ([2]; 50 µM) | log2 mean competition ratio ([2]; 200 µM)
AGTPBP1 C305 (UniProt Q9UPW5) | -0.0426 | 0.0203 | 0.226 | 0.00712
ACTN1 C370 | 0.282 | -0.0808 | 0.315 | -0.273

# — the supplement of paper PMC11732987, “Enantioselective OTUD7B fragment discovery through chemoproteomics screening and high-throughput optimisation” (Communications Chemistry, 2025)
